Measurements reported in PubChem BioAssay AID1224828 (NIAID, 2016)
The deposit covers about 17,000 reagents; this is an unselected part. In the full data, 762 (4.5%) were called active. 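Active calls include both raised and lowered p65 entry, mostly lowered; wells with fewer than 50 cells lack a z-score.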 Raw values are not corrected between plates. A number with no mark means an inactive call. Reagents against one gene are numbered here.

- Assay: 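Regulators linking TLR4 signalling to p65 nuclear translocation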 (primary screen)
- Cell system: mouse RAW264.7 G9 macrophage reporter cells (GFP-p65, Tnf promoter-mCherry)
- Reagent: siRNA pool against mouse genes, 100 nM
- Time to read-out: 2 days siRNA transfection, then 40 min LPS before fixation
- Challenge: LPS (Salmonella minnesota R595) at 10 ng/ml
- Read-out: 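Imaged p65 nuclear translocation ratio, normalised to the plate median, converted to robust z-scores and averaged across two replicates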
- Reading the numbers: p65 translocation robust z-score: higher = more nuclear NF-kappaB p65 after LPS than the plate median; nuclear/cytoplasmic p65 ratio: higher = more nuclear NF-kappaB p65
- Active means: 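Active if robust z is above 3.3 (negative regulators) or below -1.56, the Tlr4 control median (positive regulators); activity score 50 or more; control wells not called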
- Calls: active = hit (p65 shift raised or lowered); inactive = no clear change

p65 translocation robust z-score	nuclear/cytoplasmic p65 ratio, rep 1	nuclear/cytoplasmic p65 ratio, rep 2	low cell count flag	gene symbol	reagent
-0.35	1.45	1.3	enough cells to score	Chrnb3 (cholinergic receptor, nicotinic, beta polypeptide 3)	1
-0.18	1.41	1.33	enough cells to score	Nck2 (non-catalytic region of tyrosine kinase adaptor protein 2)	1
0.26	1.49	1.53	enough cells to score	C130021I20Rik (Riken cDNA C130021I20 gene)	1
	1.35	1.34	fewer than 50 cells per well; well left out of scoring	Slc75a1	1
-1.16	1.33	1.19	enough cells to score	Gpr137c (G protein-coupled receptor 137C)	1
1.61	1.94	1.81	enough cells to score	Lpo (lactoperoxidase)	1
2.32	2.02	1.71	enough cells to score	Tek (TEK receptor tyrosine kinase)	1
-0.02	1.73	1.34	enough cells to score	Lgals6 (lectin, galactose binding, soluble 6)	1
-0.03	1.57	1.71	enough cells to score	Sigirr	1
	1.88	1.16	fewer than 50 cells per well; well left out of scoring	Src (src proto-oncogene, non-receptor tyrosine kinase)	1
-2.19 (active)	1.39	1.21	enough cells to score	Lrrc10 (leucine rich repeat containing 10)	1
1.61	1.52	1.43	enough cells to score	Emc2 (ER membrane protein complex subunit 2)	1
-0.05	1.31	1.45	enough cells to score	Mtr (5-methyltetrahydrofolate-homocysteine methyltransferase)	1
2.2	1.68	1.82	enough cells to score	Sntn (sentan, cilia apical structure protein)	1
0.04	1.48	1.19	enough cells to score	Spink4 (serine peptidase inhibitor, Kazal type 4)	1
-0.6	1.37	1.28	enough cells to score	Hba-x (hemoglobin X, alpha-like embryonic chain in Hba complex)	1
1.58	2.1	1.57	enough cells to score	Pak1 (p21 (RAC1) activated kinase 1)	1
0.67	1.22	1.31	enough cells to score	St18 (suppression of tumorigenicity 18)	1
0.7	1.5	1.27	enough cells to score	Rap2c (RAP2C, member of RAS oncogene family)	1
-0.12	1.44	1.63	enough cells to score	Elp2 (elongator acetyltransferase complex subunit 2)	1
0.49	1.8	1.59	enough cells to score	Or4p22 (olfactory receptor family 4 subfamily P member 22)	1
0.55	1.78	1.65	enough cells to score	Rhox4e (reproductive homeobox 4E)	1
-1.33	1.24	1.2	enough cells to score	Myt1 (myelin transcription factor 1)	1
-1.38	1.32	1.21	enough cells to score	Prss16 (serine protease 16 (thymus))	1
	1.42	1.45	fewer than 50 cells per well; well left out of scoring	Tti1 (TELO2 interacting protein 1)	1
0.43	1.59	1.65	enough cells to score	Lurap1l (leucine rich adaptor protein 1-like)	1
	1.58	1.61	fewer than 50 cells per well; well left out of scoring	Riiad1	1

The list goes on, starting with the last 7 of the part before.
p65 translocation robust z-score	nuclear/cytoplasmic p65 ratio, rep 1	nuclear/cytoplasmic p65 ratio, rep 2	low cell count flag	gene symbol	reagent
0.49	1.8	1.59	enough cells to score	Or4p22 (olfactory receptor family 4 subfamily P member 22)	1
0.55	1.78	1.65	enough cells to score	Rhox4e (reproductive homeobox 4E)	1
-1.33	1.24	1.2	enough cells to score	Myt1 (myelin transcription factor 1)	1
-1.38	1.32	1.21	enough cells to score	Prss16 (serine protease 16 (thymus))	1
	1.42	1.45	fewer than 50 cells per well; well left out of scoring	Tti1 (TELO2 interacting protein 1)	1
0.43	1.59	1.65	enough cells to score	Lurap1l (leucine rich adaptor protein 1-like)	1
	1.58	1.61	fewer than 50 cells per well; well left out of scoring	Riiad1	1
-0.8	1.4	1.35	enough cells to score	Gramd2b (GRAM domain containing 2B)	1
0.42	1.45	1.52	enough cells to score	Pfn1 (profilin 1)	1
1.28	1.44	1.42	enough cells to score	Or10x1 (olfactory receptor family 10 subfamily X member 1)	1
1.47	1.63	1.39	enough cells to score	St3gal3 (ST3 beta-galactoside alpha-2,3-sialyltransferase 3)	1
-2.2 (active)	1.59	1.24	enough cells to score	Grina	1
-1.07	1.31	1.27	enough cells to score	Pde4c (phosphodiesterase 4C, cAMP specific)	1
-0.8	1.22	1.32	enough cells to score	Cntd1 (cyclin N-terminal domain containing 1)	1
-1.34	1.42	1.2	enough cells to score	Inhbe (inhibin beta-E)	1
	1.34	1.31	fewer than 50 cells per well; well left out of scoring	Gm9732 (predicted gene 9732)	1
0.67	1.43	1.29	enough cells to score	Rnase6 (ribonuclease, RNase A family, 6)	1
-2.1 (active)	1.47	1.17	enough cells to score	Lrrn1 (leucine rich repeat protein 1, neuronal)	1
-0.68	1.21	1.17	enough cells to score	Tpst1 (protein-tyrosine sulfotransferase 1)	1
0.6	1.77	1.65	enough cells to score	Anxa9 (annexin A9)	1
0.23	1.6	1.84	enough cells to score	Cox6c (cytochrome c oxidase subunit 6C)	1
	1.15	1.08	fewer than 50 cells per well; well left out of scoring	Bcl2l12 (BCL2 like 12)	1
-0.67	1.61	1.43	enough cells to score	Nox3 (NADPH oxidase 3)	1
1.62	1.86	1.88	enough cells to score	Loxl1 (lysyl oxidase-like 1)	1
	1.28	1.25	fewer than 50 cells per well; well left out of scoring	Heg1 (heart development protein with EGF-like domains 1)	1
	1.38	1.32	fewer than 50 cells per well; well left out of scoring	Heg1 (heart development protein with EGF-like domains 1)	2
-1.57 (active)	1.34	1.21	enough cells to score	Kcnn2	1
0.18	1.58	1.45	enough cells to score	Htr5b (5-hydroxytryptamine (serotonin) receptor 5B)	1
-2.13 (active)	1.18	1.58	enough cells to score	Fam76a (family with sequence similarity 76, member A)	1
	1.33	1.62	fewer than 50 cells per well; well left out of scoring	Ankrd55 (ankyrin repeat domain 55)	1
-0.64	1.38	1.31	enough cells to score	Pde5a (phosphodiesterase 5A, cGMP-specific)	1
-0.78	1.46	1.42	enough cells to score	Ngrn (neugrin, neurite outgrowth associated)	1
1.22	1.73	1.86	enough cells to score	Atf7 (activating transcription factor 7)	1
	1.66	1.18	fewer than 50 cells per well; well left out of scoring	Rhot1 (ras homolog family member T1)	1
-0.56	1.48	1.72	enough cells to score	Cdc26 (cell division cycle 26)	1
-0.1	1.45	1.37	enough cells to score	Diras1 (DIRAS family, GTP-binding RAS-like 1)	1
-0.98	1.41	1.23	enough cells to score	Epb42 (erythrocyte membrane protein band 4.2)	1
-0.06	1.44	1.35	enough cells to score	Gtf2h2 (general transcription factor II H, polypeptide 2)	1
	1.8	1.23	fewer than 50 cells per well; well left out of scoring	Hipk2 (homeodomain interacting protein kinase 2)	1
